Measured values taken from article PMC2778955.
Results are given in words; binding and its absence hold for the method and conditions named. For some assays here: In cells and extracts the contact can be indirect. Some results given as binding are weak or reduced against the parent protein; the word gives no strength. For some assays here: Sequences can lack the tags named with a protein. One block for each binder: values may come before it.

Legend:
[1] = molecular target: T1, IRF3 (endogenous, MEFs) (mouse (endogenous in MEFs)), P70671; experiment: native gel or EMSA; conditions: remark: other sources report otherwise
T1 chain: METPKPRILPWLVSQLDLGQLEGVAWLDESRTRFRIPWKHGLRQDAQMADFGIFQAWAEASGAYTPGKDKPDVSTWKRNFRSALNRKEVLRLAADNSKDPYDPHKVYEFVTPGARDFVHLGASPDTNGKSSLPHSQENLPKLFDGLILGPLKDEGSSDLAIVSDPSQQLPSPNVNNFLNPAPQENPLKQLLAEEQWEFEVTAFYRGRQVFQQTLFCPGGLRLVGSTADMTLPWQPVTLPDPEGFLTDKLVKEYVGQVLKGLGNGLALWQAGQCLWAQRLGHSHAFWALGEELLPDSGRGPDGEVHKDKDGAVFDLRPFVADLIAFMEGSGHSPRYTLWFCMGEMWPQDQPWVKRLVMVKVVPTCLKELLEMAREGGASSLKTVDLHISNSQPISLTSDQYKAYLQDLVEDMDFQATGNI

[2] = molecular target: Myc epitope-tagged IKKγ-WT (human), Q9Y6K9; experiment: co-IP; co-transfected HEK293 cells (cell line not named for Figure 8C), 48 h; whole cell extracts in modified RIPA buffer; nondenaturing IP with anti-Myc Ab at 4°C; blot with anti-Flag or anti-V5 Ab; conditions: remark: other sources report otherwise

binding [1]: binds
B1: IRF3 (endogenous, MEFs), P70671 1-419 (protein)
chain: T1 chain

binding [2]: binds
B2: Flag epitope-tagged IKKα, O15111 1-745 (enzyme)
chain: MERPPGLRPGAGGPWEMRERLGTGGFGNVCLYQHRELDLKIAIKSCRLELSTKNRERWCHEIQIMKKLNHANVVKACDVPEELNILIHDVPLLAMEYCSGGDLRKLLNKPENCCGLKESQILSLLSDIGSGIRYLHENKIIHRDLKPENIVLQDVGGKIIHKIIDLGYAKDVDQGSLCTSFVGTLQYLAPELFENKPYTATVDYWSFGTMVFECIAGYRPFLHHLQPFTWHEKIKKKDPKCIFACEEMSGEVRFSSHLPQPNSLCSLVVEPMENWLQLMLNWDPQQRGGPVDLTLKQPRCFVLMDHILNLKIVHILNMTSAKIISFLLPPDESLHSLQSRIERETGINTGSQELLSETGISLDPRKPASQCVLDGVRGCDSYMVYLFDKSKTVYEGPFASRSLSDCVNYIVQDSKIQLPIIQLRKVWAEAVHYVSGLKEDYSRLFQGQRAAMLSLLRYNANLTKMKNTLISASQQLKAKLEFFHKSIQLDLERYSEQMTYGISSEKMLKAWKEMEEKAIHYAEVGVIGYLEDQIMSLHAEIMELQKSPYGRRQGDLMESLEQRAIDLYKQLKHRPSDHSYSDSTEMVKIIVHTVQSQDRVLKELFGHLSKLLGCKQKIIDLLPKVEVALSNIKEADNTVMFMQGKRQKEIWHLLKIACTQSSARSLVGSSLEGAVTPQTSAWLPPTSAEHDHSLSCVVTPQDGETSAQMIEENLNCLGHLSTIIHEANEEQGNSMMNLDWSWLTE
